{"source": "PubChem BioAssay AID1508600", "about": "(Functional Genomics Laboratory (NCATS/FGL), 2020)", "note": "Among all 53,000 sequences or so, about 3,700 (7%) were called active.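 The calls were made as follows: active = gene knockdowns whose robust z-score for IL-1 alpha signal is at least 2 or at most -2, so actives lie on both sides; inactive = the rest.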 This is one part of the list."}
{"assay": "Components of the Cytosolic LPS Sensing Pathway: Gene Identification via Genome-wide siRNA Screen;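 also: robust z of the log signal after scaling to non-targeting control siRNA wells of the plate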", "settings": "RAW264.7 macrophages, IL-1a HTRF, actives lie on both sides, screened at 100 nM (by protocol), cells primed 5 h with Pam3CSK4 first", "method_in_brief": "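Knockdown: 100 nM siRNA, 48h, RAW264.7. Stimulation: Pam3CSK4 5 h, then LipidA via TransIT-TKO 24 h. Output: supernatant IL-1a HTRF, negative-control-normalized, log robust z-score; viability by CellTiter-Glo.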"}
{"sequence": "GGGAAUUCUUUGUUAAUGATT against Ceacam9", "z-score": "inactive: -0.879"}
{"sequence": "GGGACAAAAACACAUGUACTT against Kif5c", "z-score": "inactive: 0.773"}
{"sequence": "CCAUGCAAGAAUUAAAGCCTT against Anxa11", "z-score": "inactive: -0.107"}
{"sequence": "GCUUCCAUAUCUUUCAUAGTT against Olfr987", "z-score": "inactive: -1.2"}
{"sequence": "GGACUUGUUCUUGUACAGCTT against Dop1b", "z-score": "inactive: 1.3"}
{"sequence": "GCUGACAAAGUGGUUUCUUTT against Olfr733", "z-score": "inactive: -0.416"}
{"sequence": "CCACCAUCAAAUAUAACUATT against 9930021J03Rik", "z-score": "inactive: 0.708"}
{"sequence": "GGUGCUGACAUCCUCUUUUTT against Chd9", "z-score": "inactive: 0.149"}
{"sequence": "GGGCAACUAUAGAAUAGUGTT against Asb2", "z-score": "inactive: 1.6"}
{"sequence": "CGACCUCAAAGAUGUGACGTT against Septin5", "z-score": "inactive: -0.902"}
{"sequence": "GGAACACAAACUGAGCCUGTT against Fam20c", "z-score": "inactive: -0.0655"}
{"sequence": "GGGUGUUCGUUAGUCCUCUTT against Dlat", "z-score": "inactive: -1.4"}
{"sequence": "GCUGAUCAUCCGUUUCACUTT against Hdc", "z-score": "inactive: -0.227"}
{"sequence": "GGGUUCUUUUAGGUUGUCATT against Ccdc85a", "z-score": "inactive: -0.123"}
{"sequence": "GCCCAGGCAAAAUAAGGAGTT against Itpkc", "z-score": "inactive: -0.166"}
{"sequence": "GGAGCAUUAUGCUUUGUGGTT against Mgat1", "z-score": "inactive: -0.613"}
{"sequence": "GCCAAAUAUUGCUUUGUUGTT against Gadd45a", "z-score": "inactive: -0.157"}
{"sequence": "GCCAAGAGGACAUUUGGCATT against Kif24", "z-score": "inactive: 0.251"}
{"sequence": "CCUAAGAACCCUGAUCCUATT against A030005L19Rik", "z-score": "inactive: 1.08"}
{"sequence": "GGAGAUGCUAGAAAUUGUGTT against Hpca", "z-score": "inactive: -0.909"}
{"sequence": "CCCUCAAGAAUAUUUAACCTT against Smarcc1", "z-score": "inactive: -0.399"}
{"sequence": "GGCCAGAGAGUCAAGGUUATT against Gm5084", "z-score": "inactive: -0.292"}
{"sequence": "GGACAAUGACCAGAAUAGCTT against Them7", "z-score": "inactive: -0.577"}
{"sequence": "GCUUGUGCUGAAUUACACCTT against Vps35", "z-score": "active: 2.11"}
{"sequence": "GGAAGGAGAAAAACAUAAATT against Hnrnpm", "z-score": "inactive: -0.869"}
{"sequence": "CGUAAGAAGUGGAUGAACATT against Zc3h7a", "z-score": "inactive: -1.88"}
{"sequence": "GGAAACAGAAUGGAGUAAUTT against Rev1", "z-score": "inactive: -1.2"}
{"sequence": "GGUUUAAAAUAGGUUUGGATT against AI597479", "z-score": "inactive: 0.436"}
{"sequence": "GGACUUUGGUUUUUGUAAGTT against Vasn", "z-score": "inactive: -1.72"}
{"sequence": "GGAGUUUGGAACAAGAGAUTT against Prkcsh", "z-score": "inactive: -1.79"}
{"sequence": "GGACUCAUUGUCUUUAACATT against Amy1", "z-score": "inactive: 1.88"}
{"sequence": "GCUUAAUGAAUCAUCGGUUTT against Itga3", "z-score": "inactive: 1.41"}
{"sequence": "CCAUAUUGGCAAUCUCUAGTT against Khdc1a", "z-score": "active: 2.15"}
{"sequence": "GCCUCCACAUAGCUUCAACTT against Angel1", "z-score": "inactive: -0.954"}
{"sequence": "GCCGUACGAAAAAUAAGCATT against Rps7", "z-score": "inactive: -0.402"}
{"sequence": "GCCACUCACCUAGCAAAGATT against Fbrsl1", "z-score": "inactive: -1.36"}
{"sequence": "GGCCGUUCAUUUCCUCAUCTT against Galr2", "z-score": "inactive: -0.359"}
{"sequence": "GGUUGUUCGUAGUCUUCCUTT against Slc5a9", "z-score": "inactive: -0.559"}
{"sequence": "CGGGAUGUCAAAGUGUCAUTT against Tmem14a", "z-score": "inactive: -0.438"}
{"sequence": "GGCCAAAAGAACAAGGUUCTT against Obsl1", "z-score": "inactive: 1.49"}
{"sequence": "GGAAAUGAUAUUUGCCUGATT against Eola1", "z-score": "inactive: -1.48"}
{"sequence": "GCCAAGAAAGAAGGCGUAUTT against Cox6c", "z-score": "inactive: -0.275"}
{"sequence": "CCUACUGACGGGAUGAAGUTT against Kyat3", "z-score": "inactive: -0.251"}
{"sequence": "CGUUCCAAAUUAGACUUGUTT against Ccdc32", "z-score": "inactive: -0.175"}
{"sequence": "GGAAAAGGUUAAACUUUGATT against Cenpc1", "z-score": "inactive: 0.165"}
{"sequence": "GUAUUGUCAUCAUCAUUUCTT against Olfr910", "z-score": "inactive: 0.115"}
{"sequence": "GGAAUGACUUUUGAGACAGTT against Cyp1a1", "z-score": "inactive: -0.732"}
{"sequence": "GCUGGCUUUGAUUUAUGGATT against Prkar1a", "z-score": "active: 5.06"}
{"sequence": "GGAGAUCUUAGCAAAGUAUTT against Degs1", "z-score": "active: 2.41"}
{"sequence": "GGUUCAGUAUAUCAUCUCUTT against Zfp335", "z-score": "active: 2.69"}
{"sequence": "GGAGUUCAAUUCAUUGCCATT against Ptpre", "z-score": "inactive: 0.63"}
{"sequence": "GGGAGACAGAGAAAUCCUGTT against Alkbh7", "z-score": "inactive: -1.8"}
{"sequence": "GCCCUGUUGGACAUGAUCGTT against Txlnb", "z-score": "inactive: -0.288"}
{"sequence": "GCCAGUUGAAACCUAAACATT against Slc35d2", "z-score": "inactive: -0.576"}
{"sequence": "GGUCAUUGGUUCCUCCCUUTT against C2cd4c", "z-score": "active: 2.59"}
{"sequence": "GGAAAUAGUCAAAAGCUAUTT against Gpc5", "z-score": "inactive: -0.414"}
{"sequence": "CCAGGUGACACCCAUCAUUTT against Ankrd13d", "z-score": "inactive: 0.329"}
{"sequence": "GGUUCUGCCAUGGAGGAAUTT against Svs5", "z-score": "inactive: 0.0746"}
{"sequence": "GGGAAUGUGUUCAAAAACATT against Rpl19", "z-score": "inactive: -0.349"}
{"sequence": "UCACAAUGGAUAUUUACCUTT against Olfr693", "z-score": "inactive: -1.5"}
{"sequence": "GGUGGACAAGUUCAAAGCCTT against Atg4d", "z-score": "inactive: -1.56"}
{"sequence": "GCGAGCCAAGUUUGAACUUTT against Elovl6", "z-score": "inactive: 1.42"}
{"sequence": "GGCUCAAGAUAUCUAAGUATT against Olfr656", "z-score": "inactive: -0.752"}
{"sequence": "GGCCUUCAGUCCAUUUUUCTT against Sms", "z-score": "inactive: 1.06"}
{"sequence": "GGCAAAAACCCAGAGGACCTT against Mmut", "z-score": "inactive: 0.979"}
{"sequence": "GGUACACAUUCACCAUAGCTT against Abcc8", "z-score": "inactive: -1.84"}
{"sequence": "GGCCUUGUAUGAAUUAUUUTT against Sqle", "z-score": "active: 2.18"}
{"sequence": "CGAGGGCUACCUCAACAACTT against Syngr1", "z-score": "inactive: 0.833"}
{"sequence": "GGAUCACGAAUGAAUCCGATT against Clec4a4", "z-score": "inactive: -0.815"}
{"sequence": "CGAAAGAGAUGAUGAUAAUTT against Arrdc3", "z-score": "inactive: 0.641"}
{"sequence": "CCUUGAUGUCACAUGUAUUTT against Ankrd49", "z-score": "inactive: -1.03"}
{"sequence": "GGAGUUUGAACAAGAAAUATT against Prss12", "z-score": "inactive: 1.11"}
{"sequence": "GGCUUACCAACAGCAAACATT against Fzd1", "z-score": "inactive: -0.215"}
{"sequence": "GCUUUGAGAGGUGUUGAUATT against Gm6116", "z-score": "inactive: -0.864"}
{"sequence": "CCCUUUAUACCUUUGUGUATT against Stat5a", "z-score": "inactive: -0.0407"}
{"sequence": "GGAUUUUUAACCAAAGGAATT against Gnpnat1", "z-score": "inactive: -0.628"}
{"sequence": "GGAGUAGCAUCAAUGUUUATT against Ebpl", "z-score": "inactive: 0.275"}
{"sequence": "GGACUGUGCAACUUUGUGGTT against Timp3", "z-score": "inactive: -0.634"}
{"sequence": "CCAUUUGUAACAUGAUAGCTT against Ctss", "z-score": "inactive: -0.157"}
{"sequence": "GGAAGUCAAGAAAGUGGCCTT against H1f0", "z-score": "inactive: -0.294"}
{"sequence": "GGCAGAUAAAGAUGGAGCATT against Ndp", "z-score": "active: 3.69"}
{"sequence": "CCGAUUCAUUGAGUCUGGGTT against Lfng", "z-score": "inactive: 0.486"}
{"sequence": "GGUUUCAGGUGGACUUCCATT against Lgals12", "z-score": "inactive: -1.84"}
{"sequence": "GCGAAGAAGAAGAUAGUAATT against Zranb2", "z-score": "inactive: -0.654"}
{"sequence": "GGUUCGUGUAACCAAAGUCTT against Cavin4", "z-score": "inactive: 0.0957"}
{"sequence": "GGUAGAAGACAUUCAGAUGTT against Nr4a2", "z-score": "inactive: 1.77"}
{"sequence": "GGAACAGCUAAAGUUGGGATT against Kcnj9", "z-score": "inactive: 0.5"}
{"sequence": "GGAACGAGACAGAAUGGUCTT against Rictor", "z-score": "inactive: -0.836"}
{"sequence": "GGCCCAGAUUGACCAGUAUTT against Rtn2", "z-score": "inactive: -1.21"}
{"sequence": "GCCACGUGAUAGUAAUAAATT against Psmd12", "z-score": "inactive: 0.0999"}
{"sequence": "GAAGCCUAAUCCCUUAAUCTT against Oas1g", "z-score": "inactive: 1.07"}
{"sequence": "GGGCCUUUAUGAGUCACACTT against H2-Aa", "z-score": "inactive: -0.244"}
{"sequence": "CCCACAGUUGCAAAUUGUGTT against Olfr804", "z-score": "inactive: -1.67"}
{"sequence": "GGAAACAUGGGUUUAUUUGTT against Bche", "z-score": "inactive: -0.0931"}
{"sequence": "GGUUAUUUCUGAAAUGUGCTT against Fbxl4", "z-score": "inactive: -1.3"}
{"sequence": "GCCAAUAAAUCUCUUCCAATT against Tmem223", "z-score": "inactive: 0.277"}
{"sequence": "CGAUCGAAAUCAAGUCGAUTT against Septin9", "z-score": "inactive: 0.415"}
{"sequence": "GGGAGAUUAAUCAAGAACUTT against Ccnc", "z-score": "inactive: 0.809"}
{"sequence": "CGUGUUGAUAACUUUAACGTT against Abca9", "z-score": "inactive: 0.556"}
{"sequence": "CCGGGUCAGGACAAUUCAUTT against Hsd17b1", "z-score": "inactive: 1.87"}
{"sequence": "GGAGAACACAAAAUCAUGGTT against Xrn2", "z-score": "inactive: -0.841"}
{"sequence": "GGCAUCCUUGUUCACAUCCTT against Zfy1", "z-score": "inactive: 0.77"}
{"sequence": "GGACUUUCGAGACAAGCUGTT against Barhl1", "z-score": "inactive: -1.21"}
{"sequence": "GGCCUCACAAAAGAACACCTT against Nppb", "z-score": "inactive: -1.12"}
{"sequence": "GCUCGGUUAAGAGCCCAUGTT against Pabpn1l", "z-score": "active: -2.11"}
{"sequence": "CCAAUGGUGUAAUUAGAAATT against Olfr571", "z-score": "inactive: 0.195"}
{"sequence": "GGAACAUCCAGUCAUUUUATT against Zfp14", "z-score": "inactive: 0.233"}
